According to patent US9309242B2, “Substituted pyrido[2,3-b]pyrazines as FGFR kinase inhibitors” (priority 2011, dated 2016):
The structures given here were assigned with low confidence; some may be wrong.

Amino acid sequences for entries named in this document (tags omitted). Residues count along the entry.
UniProt P35968, whole entry: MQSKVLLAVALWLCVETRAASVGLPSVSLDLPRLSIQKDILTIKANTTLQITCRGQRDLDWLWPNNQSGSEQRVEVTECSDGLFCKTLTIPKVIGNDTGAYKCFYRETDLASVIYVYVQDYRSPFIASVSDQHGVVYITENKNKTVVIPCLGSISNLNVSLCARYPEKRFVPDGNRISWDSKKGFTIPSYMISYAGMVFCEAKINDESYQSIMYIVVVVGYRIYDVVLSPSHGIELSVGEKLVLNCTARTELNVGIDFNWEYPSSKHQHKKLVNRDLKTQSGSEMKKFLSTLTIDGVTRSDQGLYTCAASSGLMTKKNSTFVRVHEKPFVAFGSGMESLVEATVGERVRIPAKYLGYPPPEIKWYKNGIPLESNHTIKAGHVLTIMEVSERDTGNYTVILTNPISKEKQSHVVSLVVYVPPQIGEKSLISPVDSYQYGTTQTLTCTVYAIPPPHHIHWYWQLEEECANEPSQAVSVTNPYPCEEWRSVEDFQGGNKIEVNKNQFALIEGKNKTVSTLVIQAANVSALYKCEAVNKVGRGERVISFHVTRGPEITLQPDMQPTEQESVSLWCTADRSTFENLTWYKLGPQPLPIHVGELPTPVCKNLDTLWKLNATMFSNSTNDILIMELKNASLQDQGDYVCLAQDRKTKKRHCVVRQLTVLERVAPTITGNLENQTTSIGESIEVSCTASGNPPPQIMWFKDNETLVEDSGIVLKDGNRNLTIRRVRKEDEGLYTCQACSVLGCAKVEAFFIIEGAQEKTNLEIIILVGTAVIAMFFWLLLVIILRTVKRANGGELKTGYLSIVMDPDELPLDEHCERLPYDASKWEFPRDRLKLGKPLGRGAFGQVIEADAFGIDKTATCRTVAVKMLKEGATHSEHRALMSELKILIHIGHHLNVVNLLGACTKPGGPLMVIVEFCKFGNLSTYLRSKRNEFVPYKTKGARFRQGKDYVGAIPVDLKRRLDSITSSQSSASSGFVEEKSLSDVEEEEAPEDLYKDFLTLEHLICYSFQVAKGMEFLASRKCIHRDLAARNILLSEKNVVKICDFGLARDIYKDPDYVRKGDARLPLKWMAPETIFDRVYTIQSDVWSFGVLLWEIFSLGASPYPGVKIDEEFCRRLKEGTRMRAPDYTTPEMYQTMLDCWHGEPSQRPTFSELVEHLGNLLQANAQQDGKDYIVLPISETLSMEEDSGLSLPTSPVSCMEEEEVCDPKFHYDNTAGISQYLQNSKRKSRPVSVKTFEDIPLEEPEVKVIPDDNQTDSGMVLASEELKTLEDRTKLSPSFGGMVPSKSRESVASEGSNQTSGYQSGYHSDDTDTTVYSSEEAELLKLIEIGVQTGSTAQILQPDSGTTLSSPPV
UniProt P35968, 20-1356 limits assumed: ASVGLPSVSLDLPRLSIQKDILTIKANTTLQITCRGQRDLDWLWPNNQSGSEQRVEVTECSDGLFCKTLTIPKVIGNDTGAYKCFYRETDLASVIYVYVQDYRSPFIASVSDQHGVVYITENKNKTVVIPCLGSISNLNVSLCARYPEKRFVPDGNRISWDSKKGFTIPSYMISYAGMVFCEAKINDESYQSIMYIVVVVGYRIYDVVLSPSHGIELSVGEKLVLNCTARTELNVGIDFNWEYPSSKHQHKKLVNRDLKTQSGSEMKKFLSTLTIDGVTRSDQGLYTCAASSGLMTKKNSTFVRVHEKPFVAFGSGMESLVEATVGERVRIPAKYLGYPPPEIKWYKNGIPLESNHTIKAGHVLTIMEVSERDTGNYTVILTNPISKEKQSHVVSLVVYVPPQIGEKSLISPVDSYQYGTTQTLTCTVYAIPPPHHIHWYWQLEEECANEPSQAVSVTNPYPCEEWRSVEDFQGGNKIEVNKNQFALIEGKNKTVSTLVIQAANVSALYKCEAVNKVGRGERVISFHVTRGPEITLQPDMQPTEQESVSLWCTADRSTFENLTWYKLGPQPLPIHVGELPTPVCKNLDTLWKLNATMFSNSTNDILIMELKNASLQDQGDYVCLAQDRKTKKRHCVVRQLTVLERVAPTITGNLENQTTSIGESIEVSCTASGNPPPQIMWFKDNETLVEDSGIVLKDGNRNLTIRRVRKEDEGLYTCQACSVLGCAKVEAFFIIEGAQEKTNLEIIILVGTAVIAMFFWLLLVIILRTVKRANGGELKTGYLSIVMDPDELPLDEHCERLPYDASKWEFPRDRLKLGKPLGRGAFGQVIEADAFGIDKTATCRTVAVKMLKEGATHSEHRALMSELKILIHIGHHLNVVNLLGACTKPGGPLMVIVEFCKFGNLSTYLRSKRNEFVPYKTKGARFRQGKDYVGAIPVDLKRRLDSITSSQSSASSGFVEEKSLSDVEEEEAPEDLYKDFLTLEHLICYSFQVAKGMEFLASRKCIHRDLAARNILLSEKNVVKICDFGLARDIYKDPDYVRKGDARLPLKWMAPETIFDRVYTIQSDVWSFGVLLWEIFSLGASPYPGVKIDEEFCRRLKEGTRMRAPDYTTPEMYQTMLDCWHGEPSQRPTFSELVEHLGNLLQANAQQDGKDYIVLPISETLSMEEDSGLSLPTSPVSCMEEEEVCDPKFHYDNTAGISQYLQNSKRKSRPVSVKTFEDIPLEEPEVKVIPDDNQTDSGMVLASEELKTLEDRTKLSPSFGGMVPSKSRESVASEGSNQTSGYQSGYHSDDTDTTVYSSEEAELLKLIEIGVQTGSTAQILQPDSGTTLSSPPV
UniProt P11362, whole entry: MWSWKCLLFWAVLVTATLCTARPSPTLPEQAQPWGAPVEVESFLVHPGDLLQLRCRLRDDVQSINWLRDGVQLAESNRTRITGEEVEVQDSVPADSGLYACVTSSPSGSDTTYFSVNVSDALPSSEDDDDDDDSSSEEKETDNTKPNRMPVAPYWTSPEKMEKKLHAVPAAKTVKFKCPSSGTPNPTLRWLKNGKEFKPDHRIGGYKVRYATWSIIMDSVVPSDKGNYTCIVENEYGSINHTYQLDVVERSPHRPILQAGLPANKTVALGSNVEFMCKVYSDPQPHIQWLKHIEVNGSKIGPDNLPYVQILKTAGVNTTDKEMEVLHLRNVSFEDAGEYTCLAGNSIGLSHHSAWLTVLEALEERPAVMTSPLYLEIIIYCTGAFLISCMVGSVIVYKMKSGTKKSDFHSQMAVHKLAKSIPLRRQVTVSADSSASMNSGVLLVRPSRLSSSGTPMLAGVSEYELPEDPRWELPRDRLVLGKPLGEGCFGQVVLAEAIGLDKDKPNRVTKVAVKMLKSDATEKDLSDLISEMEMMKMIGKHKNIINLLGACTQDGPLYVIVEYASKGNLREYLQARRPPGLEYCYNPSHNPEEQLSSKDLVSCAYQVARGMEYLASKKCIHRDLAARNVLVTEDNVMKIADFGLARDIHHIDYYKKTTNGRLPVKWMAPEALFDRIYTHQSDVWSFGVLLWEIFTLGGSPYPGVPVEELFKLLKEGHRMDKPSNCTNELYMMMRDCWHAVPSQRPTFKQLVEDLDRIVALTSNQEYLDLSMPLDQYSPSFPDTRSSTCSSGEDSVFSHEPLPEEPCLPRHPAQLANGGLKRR
UniProt P11362, 22-822 limits assumed: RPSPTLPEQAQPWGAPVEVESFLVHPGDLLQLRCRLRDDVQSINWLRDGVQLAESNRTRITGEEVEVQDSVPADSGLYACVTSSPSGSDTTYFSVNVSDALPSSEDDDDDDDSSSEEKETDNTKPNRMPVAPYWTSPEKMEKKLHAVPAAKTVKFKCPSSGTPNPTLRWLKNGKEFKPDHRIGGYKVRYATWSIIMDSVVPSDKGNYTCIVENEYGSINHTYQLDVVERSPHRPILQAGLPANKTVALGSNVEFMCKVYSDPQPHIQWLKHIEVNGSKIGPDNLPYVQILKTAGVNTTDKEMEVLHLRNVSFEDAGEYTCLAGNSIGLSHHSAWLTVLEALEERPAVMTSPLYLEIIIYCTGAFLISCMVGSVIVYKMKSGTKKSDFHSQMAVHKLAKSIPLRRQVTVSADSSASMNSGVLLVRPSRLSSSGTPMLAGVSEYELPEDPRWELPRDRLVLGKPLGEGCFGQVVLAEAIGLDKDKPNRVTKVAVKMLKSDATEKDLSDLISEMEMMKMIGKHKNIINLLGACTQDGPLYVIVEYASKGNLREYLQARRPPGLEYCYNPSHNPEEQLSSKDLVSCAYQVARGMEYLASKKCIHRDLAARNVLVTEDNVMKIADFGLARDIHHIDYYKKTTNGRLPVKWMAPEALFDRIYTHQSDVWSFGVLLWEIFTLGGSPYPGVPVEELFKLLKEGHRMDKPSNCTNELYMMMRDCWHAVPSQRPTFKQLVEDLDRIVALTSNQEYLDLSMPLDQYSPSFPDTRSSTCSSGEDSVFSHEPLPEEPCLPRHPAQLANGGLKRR
UniProt P22607, whole entry: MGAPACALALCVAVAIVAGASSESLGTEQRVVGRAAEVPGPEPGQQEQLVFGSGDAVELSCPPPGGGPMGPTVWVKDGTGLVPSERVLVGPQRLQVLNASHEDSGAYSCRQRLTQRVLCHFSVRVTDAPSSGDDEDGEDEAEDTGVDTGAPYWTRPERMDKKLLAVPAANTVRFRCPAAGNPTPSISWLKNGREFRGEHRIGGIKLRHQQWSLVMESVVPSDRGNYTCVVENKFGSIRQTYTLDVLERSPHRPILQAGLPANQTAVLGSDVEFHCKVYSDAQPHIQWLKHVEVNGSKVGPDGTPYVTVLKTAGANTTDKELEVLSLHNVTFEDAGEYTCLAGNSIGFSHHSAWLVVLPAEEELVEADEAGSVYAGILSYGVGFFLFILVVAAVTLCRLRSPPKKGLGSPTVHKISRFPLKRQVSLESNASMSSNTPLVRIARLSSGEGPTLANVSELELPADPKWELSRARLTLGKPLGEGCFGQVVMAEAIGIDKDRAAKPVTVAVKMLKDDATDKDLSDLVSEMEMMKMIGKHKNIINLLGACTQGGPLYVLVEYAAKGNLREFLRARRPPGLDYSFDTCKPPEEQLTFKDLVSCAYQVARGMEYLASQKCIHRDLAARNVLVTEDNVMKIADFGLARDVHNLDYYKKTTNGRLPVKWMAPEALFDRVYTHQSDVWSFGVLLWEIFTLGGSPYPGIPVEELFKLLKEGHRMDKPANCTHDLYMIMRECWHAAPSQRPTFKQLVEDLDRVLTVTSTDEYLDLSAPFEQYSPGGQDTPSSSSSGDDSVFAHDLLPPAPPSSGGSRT
UniProt P22607, 23-806 limits assumed: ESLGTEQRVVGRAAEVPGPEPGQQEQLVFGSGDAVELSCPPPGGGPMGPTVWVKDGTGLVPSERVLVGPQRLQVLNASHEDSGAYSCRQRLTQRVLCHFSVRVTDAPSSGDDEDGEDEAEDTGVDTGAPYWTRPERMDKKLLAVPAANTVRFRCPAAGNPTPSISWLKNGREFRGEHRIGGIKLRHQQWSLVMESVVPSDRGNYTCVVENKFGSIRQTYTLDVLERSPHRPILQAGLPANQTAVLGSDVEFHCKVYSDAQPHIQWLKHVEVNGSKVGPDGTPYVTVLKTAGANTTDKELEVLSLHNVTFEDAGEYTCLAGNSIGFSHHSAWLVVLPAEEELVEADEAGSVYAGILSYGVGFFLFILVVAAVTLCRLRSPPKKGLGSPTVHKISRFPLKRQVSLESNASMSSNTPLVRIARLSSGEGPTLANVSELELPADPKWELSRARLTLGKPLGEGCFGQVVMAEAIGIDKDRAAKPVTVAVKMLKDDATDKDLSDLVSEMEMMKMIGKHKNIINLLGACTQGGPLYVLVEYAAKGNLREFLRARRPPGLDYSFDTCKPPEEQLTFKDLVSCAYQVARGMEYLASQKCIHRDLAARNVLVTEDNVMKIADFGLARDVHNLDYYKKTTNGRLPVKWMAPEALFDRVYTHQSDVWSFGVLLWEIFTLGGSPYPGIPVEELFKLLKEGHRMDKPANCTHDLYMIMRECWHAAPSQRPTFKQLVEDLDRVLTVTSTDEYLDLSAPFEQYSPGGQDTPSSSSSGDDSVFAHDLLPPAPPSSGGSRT

Key:
[1] = biological target: Ba/F3-FGFR4-transfected cells (Homo sapiens, UniProt P22455); experiment: Ba/F3-FGFR4 cellular proliferation assay, Alamar Blue; type: cell-based
KDR (h) = KDR (h) (Homo sapiens, UniProt P35968); experiment: KDR (VEGFR2) (enzymatic assay), TR-FRET; details: average values if tested multiple times
[2] = biological target: Ba/F3-KDR-transfected cells (Homo sapiens, UniProt P35968); experiment: Ba/F3-KDR (minus IL3) cellular proliferation assay, Alamar Blue; type: cell-based
Protocol: (§1) Ba/F3-KDR (Minus IL3 or Plus IL3) (Cellular Proliferation Assay)
In a 384 well plate, 100 n1 of compound dilution in DMSO was sprayed before adding 50 μl cell culture medium (phenol red free RPMI-1640, 10% FBS, 2 mM L-Glutamine and 50 μg/ml Gentamycin) containing 20000 cells per well of Ba/F3-KDR-transfected cells. Cells were put in an incubator at 37° C. and 5% CO2. After 24 hours, 10 μl of Alamar Blue solution (0.5 mM K3Fe(CN)6, 0.5 mM K4Fe(CN)6, 0.15 mM Resazurin and 100 mM Phosphate Buffer) was added to the wells, incubated for 4 hours at 37° C. and 5% CO2 before RFU's (Relative Fluorescence Units) (ex. 540 nm., em. 590 nm.) were measured in a fluororescence plate reader. […]

[3] = test system: Ba/F3-FGFR3-transfected cells; experiment: Ba/F3-FGFR3 (plus IL3) cellular proliferation assay, counterscreen with 10 ng/ml murine IL3; type: cell-based; details: plus IL3 (10 ng/ml murine IL3, counterscreen)
Protocol: Ba/F3-FGFR3 (Minus IL3 or Plus IL3) (Cellular Proliferation Assay)
(§2) In a 384 well plate, 100 nl of compound dilution in DMSO was sprayed before adding 50 μl cell culture medium (phenol red free RPMI-1640, 10% FBS, 2 mM L-Glutamine and 50 μg/ml Gentamycin) containing 20000 cells per well of Ba/F3-FGFR3-transfected cells. Cells were put in an incubator at 37° C. and 5% CO2. After 24 hours, 10 μl of Alamar Blue solution (0.5 mM K3Fe(CN)6, 0.5 mM K4Fe(CN)6, 0.15 mM Resazurin and 100 mM Phosphate Buffer) was added to the wells, incubated for 4 hours at 37° C. and 5% CO2 before RFU's (Relative Fluorescence Units) (ex. 540 nm., em. 590 nm.) were measured in a fluororescence plate reader.
(§3) As a counterscreen the same experiment was performed in the presence of 10 ng/ml murine IL3.

[4] = biological target: Ba/F3-FGFR1-transfected cells (Homo sapiens, UniProt P11362); experiment: Ba/F3-FGFR1 (minus IL3) cellular proliferation assay, Alamar Blue; type: cell-based
[5] = biological target: Ba/F3-FGFR3-transfected cells (Homo sapiens, UniProt P22607); experiment: Ba/F3-FGFR3 (minus IL3) cellular proliferation assay, Alamar Blue; type: cell-based
FGFR3 (h) = FGFR3 (h) (Homo sapiens, UniProt P22607); experiment: FGFR3 (enzymatic assay), TR-FRET; type: biochemical; details: average values if tested multiple times
FGFR1 (h) = FGFR1 (h) (Homo sapiens, UniProt P11362); experiment: FGFR1 (enzymatic assay), TR-FRET; type: biochemical; details: average values if tested multiple times
[6] = test system: Ba/F3-FGFR1-transfected cells; experiment: Ba/F3-FGFR1 (plus IL3) cellular proliferation assay, counterscreen with 10 ng/ml murine IL3; type: cell-based; details: plus IL3 (10 ng/ml murine IL3, counterscreen)
Protocol: Ba/F3-FGFR1 (Minus IL3 or Plus IL3) (Cellular Proliferation Assay)
as §2, with “Ba/F3-FGFR1-transfected” for “Ba/F3-FGFR3-transfected”
as §3

[7] = test system: Ba/F3-KDR-transfected cells; experiment: Ba/F3-KDR (plus IL3) cellular proliferation assay, counterscreen with 10 ng/ml murine IL3; type: cell-based; details: plus IL3 (10 ng/ml murine IL3, counterscreen)
Protocol: as §1
In a 384 well plate, 100 n1 of compound dilution in DMSO was sprayed before adding 50 μl cell culture medium (phenol red free RPMI-1640, 10% FBS, 2 mM L-Glutamine and 50 μg/ml Gentamycin) containing 20000 cells per well of Ba/F3-KDR-transfected cells. Cells were put in an incubator at 37° C. and 5% CO2. After 24 hours, 10 μl of Alamar Blue solution (0.5 mM K3Fe(CN)6, 0.5 mM K4Fe(CN)6, 0.15 mM Resazurin and 100 mM Phosphate Buffer) was added to the wells, incubated for 4 hours at 37° C. and 5% CO2 before RFU's (Relative Fluorescence Units) (ex. 540 nm., em. 590 nm.) were measured in a fluororescence plate reader.
as §3

FGFR2 (h) = FGFR2 (h) (Homo sapiens, UniProt P21802); experiment: FGFR2 (enzymatic assay), TR-FRET; type: biochemical; details: average values if tested multiple times
FGFR4 (h) = FGFR4 (h) (Homo sapiens, UniProt P22455); experiment: FGFR4 (enzymatic assay), TR-FRET; type: biochemical; details: average values if tested multiple times
[8] = test system: Ba/F3-Flt3-transfected cells; experiment: Ba/F3-Flt3 (plus IL3) cellular proliferation assay, counterscreen with 10 ng/ml murine IL3; type: cell-based; details: plus IL3 (10 ng/ml murine IL3, counterscreen)
Protocol: Ba/F3-Flt3 (Minus IL3 or Plus IL3) (Cellular Proliferation Assay)
as §2, with “Ba/F3-Flt3-transfected” for “Ba/F3-FGFR3-transfected”
as §3

[9] = biological target: Ba/F3-Flt3-transfected cells (Homo sapiens, UniProt P36888, cells depend on it, form not given); experiment: Ba/F3-Flt3 (minus IL3) cellular proliferation assay, Alamar Blue; type: cell-based

SMILES	BAF3-FGFR4 pIC50 [1]	VEGFR 2 (KDR) pIC50 (KDR (h))	BAF3-KDR (MIN IL3) pIC50 [2]	BAF3-FGFR3 (PLUS IL3) pIC50 [3]	BAF3-FGFR1 (MIN IL3) pIC50 [4]	BAF3-FGFR3 (MIN IL3) pIC50 [5]	FGFR 3 pIC50 (FGFR3 (h))	FGFR 1 pIC50 (FGFR1 (h))	BAF3-FGFR1 (PLUS IL3) pIC50 [6]	BAF3-KDR (PLUS IL3) pIC50 [7]	FGFR 2 pIC50 (FGFR2 (h))	FGFR 4 pIC50 (FGFR4 (h))	BAF3_FLT3 (PLUS IL3) pIC50 [8]	BAF3-FLT3 (MIN IL3) pIC50 [9]
COc1cc(OC)cc(N(Cc2nc3ccccc3[nH]2)c2ccc3ncc(-c4cnn(C)c4)nc3n2)c1	7.06	7.88	5.83	<5	7.21	~7.64	8.92	8.73	<5	<5	8.70	8.90	–	–
COc1cc(OC)c(F)c(N=c2ccc3ncc(-c4cnn(C)c4)nc3n2CC(O)C(F)(F)F)c1F (centres unmarked)	7.55	7.93	6.05	<5	8.10	8.05	9.05	9.35	<5	<5	8.67	9.03	<5	<5
